The source of these data is patent US20100303896A1, “5BETA, 14BETA-ANDROSTANE DERIVATIVES USEFUL FOR THE TREATMENT OF RESTENOSIS AFTER ANGIOPLASTIC OR ENDOARTHERECTOMY AND DISEASES DUE TO ORGAN FIBROSIS” (SIGMA-TAU INDUSTRIE FARMACEUTICHE RIUNITE S.P.A., priority 2007, published 2010).

The data set relates to MHS rats with CCl4-induced liver fibrosis. In words: CCl4-induced liver fibrosis: body and organ weights. The class given is in vivo, rat. The conditions noted are these: RLF group, 1 mg/kg os for 10 weeks + CCl4. An excerpt:
To test the activity of the compound of the invention for the prevention and treatment of organ fibrosis, spontaneous hypertensive MHS rats with genetic arterial hypertension (Bianchi G., Barber B. R., Torielli L., Ferrari P. The Milan hypertensive strain of rats. Genetic Model of Hypertension. 1994; 22: 457-460) were used. MHS rats are available at Prassis Research Institute, Sigma-tau, Italy.
Liver fibrosis was induced by CCl4 oral administration as described in J. Hepatol. 1999; 30: 621-631, with minor modifications: 0.375 ml/kg of CCl4 dissolved in olive oil was administered three times per week for three weeks by oral gavage to rats starting from the 7th week after weaning. Control rats received only the vehicle (olive oil). Rostafuroxin treatment started 7 weeks before the induction of liver fibrosis by CCl4 administration (pretreatment) and was continued during the CCl4 treatment for three weeks. Rostafuroxin was orally administered at 1 mg/kg/day, suspended in Methocel (0.5%). […]

Each structure is given as a SMILES string. Values joined by “and” are separate entries in the source; they are usually repeats but may differ in a detail not shown here. Equal entries are not always repeated.

Take `C[C@]12CC[C@H](O)C[C@H]1CC[C@@H]1[C@@H]2CC[C@]2(C)[C@@](O)(c3ccoc3)CC[C@]12O` [Rostafuroxin, 17 beta-(3-Furyl)-5 beta-androstane-3beta, 14 beta, 17 alpha-triol]: the “BW, mean” value (group mean (n=8), Ctr. LF mean 349.4) was found to be 353 g. Further, the BW (individual rats, 1 mg/kg) is 347 g and 364 g and 366 g and 344 g (2×) and 333 g and 381 g and 345 g.
